This list was built around the results that the source calls inconclusive (neither active nor inactive); the mix of calls is not that of the screen. Where the call is inconclusive, the potency comes from a doubtful curve fit. Active and inactive are the calls of the source. The call rests on the fitted dose curve; in most records, active means well fitted cell-killing curve with a large enough effect; inconclusive means small, poorly fitted or top-dose-only effect, or effect the other way; inactive means flat fitted curve, though single readings scatter.
Assay: Cell viability qHTS assay in S16 Pmp22-F2sN cells - Confirmatory screen (AID 1508641)
Conditions: S16 Schwann cells viability, CellTiter-Glo ATP luminescence, 24 h; series mostly up to 57.5 µM
Source text: Assay Provider: Jim Inglese Ph.D. National Center for Advancing Translational Science, National Institutes of Health, Rockville, MD CMT is a heterogeneous group of neurological disorders that affect approximately 1 in 2,500 people. In particular, the most common form of CMT, CMT1A is genetically linked to the duplication of the PMP22 gene which leads to Schwann cell overexpression, thus manifesting itself as a typical case of dose-sensitive diseases. To identify small molecule compounds that can mediate the expression of PMP22 we developed a phenotypic assay screening strategy by utilizing genome editing techniques to construct Schwann cell lines containing novel reporter technology to monitor the transcriptional or translational regulation of PMP22. For high sensitivity we use a bioluminescent reporter system embedded in the 3' UTR of the PMP22 gene (S16(c9) Pmp22-F2sN) to identify compounds that inhibit gene expression. […] We can further discriminate the effect of all transcriptionally active molecules on PMP22 translation or stability with an assay that incorporates a short NLuc peptide (HiBiT) at the C-terminus of expressed PMP22 (S16(f8) PMP22-HiBiT) allowing alpha complementation and luminescence detection of membrane-associated PMP22 protein. These assays were screened against the NCATS Sytravon Library Collection. Miniaturization of these assays to 1536-well plate format for quantitative high throughput screening (qHTS) yielded rich data sets immediately from the qHTS assay (S16(c9) Pmp22-F2sN), when compared with data from a cell viability assay (Cell TiterGlo) to identify compounds that decreased the output signals through cellular toxicity to streamline the selection process of actives for subsequent characterization using the HiBiT assay (S16(f8) PMP22-HiBiT).
Cell viability assay in S16 Pmp22-F2sN cells PROTOCOL TABLE (format as described by Inglese J, Shamu CE and Guy RK. 2007) SEQUENCE No. (e.g., 1, 2, 3, etc.); PARAMETER (e.g., Cells, Incubation, Reagent, etc.); VALUE and DESCRIPTION. 1. Cells. Add 500-1,000 cells in 4 uL in growth media (DMEM High Glucose, No Phenol Red media + 10% heat-inactivated FBS + 1% Pen/Strep supplemented media) per well into Greiner 1536-well white/solid bottom high base, TC-treated plates. 2. Compounds. Library compounds and controls added at 23nL per well, transferred by Pin Tool. 3. Incubation. Incubate plates at 37C, 5% CO2, 95% RH for 24 h. 4. Reagent. Add 3uL CellTiter-Glo per well of Greiner 1536-well plates. 5. Incubation. Incubate plates at room temperature for 15 min., protect from light. 6. Detector. FLuc luminescence measured using CCD-based camera (Viewlux). NOTES (numbers refer to Sequence numbers above; values are from representative experiments) 6. Luminescence Read: Clear filter; Exposure = 1 sec, Gain = High, Speed = Slow, Binning = 2X REFERENCES: 1. Inglese J, Shamu CE and Guy RK, Reporting data from high throughput screening of small molecule libraries, Nature Chemical Biology, 2007, 3(8): 438-441. doi.org/10.1038/nchembio0807-438 2. Yasgar A, Shinn P, Jadhav A, Auld DS, Michael S, Zheng W, Austin CP, Inglese J and Simeonov A, Compound Management for Quantitative High-Throughput Screening. J. Assoc. Lab. Auto., 2008, 13: 79-89. doi: 10.1016/j.jala.2007.12.004
Potency means the concentration at half of the fitted maximal effect.

SMILES	Potency
O=C(NCCc1ccc(Cl)cc1)c1ccc(Cn2c(=O)[nH]c3ccccc3c2=O)cc1	inactive
COc1ccccc1CNc1nc2c(S(=O)(=O)c3ccc(C)c(C)c3)nnn2c2ccc(Cl)cc12	active: 21.7 µM
CC(=O)Nc1cccc(-c2nnc(SCC(=O)c3cc([N+](=O)[O-])ccc3Cl)o2)c1	inconclusive: 0.0031 µM [rising, full curve, poor fit]
Cc1c(C(=O)Nc2ccccc2Cl)oc2ccc(S(=O)(=O)N3CCCCC3)cc12	inactive
CCOC(=O)c1c(C)[nH]c(CCC(=O)NCCCN2CCN(c3cc(Cl)ccc3C)CC2)c1C	inconclusive: 43.2 µM [cytotoxic, single point]
Cc1ccc(C)c(Nc2nn3c(=O)c4ccc(C(=O)NCc5cccs5)cc4nc3s2)c1	inconclusive: 34.3 µM [cytotoxic, single point]
CCN(Cc1ccccc1)C(=O)Cn1c(=O)n(-c2ccccc2)c(=O)c2c1c1cc(C)ccc1n2C	inactive
Cc1ccc(NC(=O)c2ccc3c(=O)n4nc(Nc5ccccc5C)sc4nc3c2)cc1C	active: 27.3 µM
CCOc1ccc(Nc2nc3c(S(=O)(=O)c4ccc(CC)cc4)nnn3c3ccc(Cl)cc23)cc1	inactive
CCS(=O)(=O)c1ncc(Cl)c(C(=O)Nc2c(C(=O)c3ccc(C)cc3)oc3ccccc23)n1	inconclusive: 17.2 µM [cytotoxic, partial curve, poor fit]
O=C(CSc1c2c(nc3ccc(Cl)cc13)CCCC2)N1CCN(c2cccc(Cl)c2)CC1	inactive
Cc1ccc(-c2csc(-c3cc4c([nH]c3=O)CC(c3ccccc3)CC4=O)n2)cc1 (stereo not given)	inconclusive: 1.93 µM [rising, full curve]
Cc1cccc(NC(=O)Cn2c(=O)oc3cc(S(=O)(=O)NCc4ccccc4)ccc32)c1	inactive
CCC1CCCCN1CCCNC(=O)c1cc2c(Cl)nc3ccccc3c2s1 (stereo not given)	inactive
COc1ccc(NS(=O)(=O)c2ccc3[nH]c4c(c3c2)CCCC4)cc1OC	inconclusive: 0.432 µM [rising, full curve, poor fit]
Cc1ccc(NC(=O)N2CCc3cc(S(=O)(=O)N4CCC(C)CC4)ccc32)cc1F	inconclusive: 34.3 µM [cytotoxic, single point]
Cn1c(=O)c2cc(C(=O)NCCCN3CCN(c4ccc(F)cc4)CC3)sc2c2ccccc21	active: 34.3 µM
CCOC(=O)N1CCN(Cc2nc3cc(NC(=O)c4ccc([N+](=O)[O-])cc4)ccc3n2C(C)C)CC1	inconclusive: 0.0385 µM [rising, full curve]
CCN(CC)CCOC(=O)c1ccc(NC(=O)Cn2ncc3c([nH]c4ccc(C)cc43)c2=O)cc1	active: 15.3 µM
COc1ccccc1Nc1nn2c(=O)c3ccc(C(=O)NCCC4=CCCCC4)cc3nc2s1	active: 6.85 µM

Three records picked at random from those above:
SMILES	Potency
CCS(=O)(=O)c1ncc(Cl)c(C(=O)Nc2c(C(=O)c3ccc(C)cc3)oc3ccccc23)n1	inconclusive: 17.2 µM [cytotoxic, partial curve, poor fit]
COc1ccccc1CNc1nc2c(S(=O)(=O)c3ccc(C)c(C)c3)nnn2c2ccc(Cl)cc12	active: 21.7 µM
COc1ccccc1Nc1nn2c(=O)c3ccc(C(=O)NCCC4=CCCCC4)cc3nc2s1	active: 6.85 µM

Additional entries:

SMILES	Potency
CCOC(=O)c1cccc(NC(=O)c2cc3cc4ccc(C)cc4nc3s2)c1	inconclusive: 43.2 µM [cytotoxic, single point]
Cc1ccc(C)c(N2CCN(CCCNC(=O)c3ccc4nc(C(C)C)oc4c3)CC2)c1	inconclusive: 30.6 µM [cytotoxic, single point]
Cc1ccc(-n2nc3c(N4CCC(C(=O)NCCc5ccccc5C)CC4)nnc(C)c3c2C)cc1	active: 24.3 µM
COc1ccc(Cn2c(SCC(N)=O)nc3c(sc4ccccc43)c2=O)cc1	active: 27.3 µM
COc1cc(NC(=O)N2CCC(CN3CCOCC3)CC2)cc(OC)c1OC	inactive
COc1ccccc1NC(=O)Cn1c(=O)n(-c2cccc(Cl)c2)c(=O)c2sc3ccccc3c21	inconclusive: 34.3 µM [cytotoxic, single point]
Cc1ccc(C(=O)c2oc3ccccc3c2NC(=O)c2nc(S(C)(=O)=O)ncc2Cl)cc1F	active: 21.7 µM
CC(C)OCCCNC(=O)CSc1c2c(nc3ccc(Cl)cc13)CCCC2	inconclusive: 38.5 µM [rising, partial curve, poor fit]
CCc1ccccc1NC(=O)Cn1c(=O)n(Cc2ccc3c(c2)OCO3)c(=O)c2ccc(C(=O)NC3CCCCC3)cc21	inactive
Cc1ccc(-n2c(=O)c3ccc(C(=O)NCc4ccccc4Cl)cc3n(CC(=O)Nc3ccc(C)cc3C)c2=O)cc1	inconclusive: 21.7 µM [cytotoxic, partial curve]
CC(=O)N1CCc2c(sc(NC(=O)CSc3ccccc3)c2-c2nc3ccccc3s2)C1	inconclusive: 3.43 µM [rising, partial curve]
COc1ccc(OC)c(NC(=O)c2c(NCc3sccc3C)sc3c2CCCCC3)c1	inconclusive: 0.611 µM [rising, full curve, poor fit]
CCCCCS(=O)(=O)c1oc(-c2cccs2)nc1S(=O)(=O)c1ccc(C)cc1	inconclusive: 38.5 µM [cytotoxic, single point]
COc1ccc(NC(=O)CSc2c3c(nc4ccc(Cl)cc24)CCCC3)cc1Cl	inconclusive: 27.3 µM [rising, single point]
Cc1ccc(CNC(=O)Cn2c(=O)n(Cc3ccccc3)c(=O)c3sc4ccccc4c32)cc1	inactive
O=C(NCCSc1c(-c2ccccc2)[nH]c2ccccc12)c1ccc(S(=O)(=O)N2CCOCC2)cc1	inactive
Cc1ccccc1CNC(=O)C1CCCN(c2nnc(-n3c(C)ccc3C)s2)C1 (stereo not given)	inactive
CCC1=Nc2cc(C(=O)NCCCOC)ccc2Sc2ccc(Br)cc21	inconclusive: 0.611 µM [rising, full curve, poor fit]
COc1ccccc1N1CCN(c2ncnc3c2cnn3-c2cc(Cl)ccc2C)CC1	inconclusive: 38.5 µM [cytotoxic, partial curve]
CC(C)NC(=O)c1ccc(-n2c(-c3ccccc3)cc3c2CCCC3)cc1	inconclusive: 0.0172 µM [rising, full curve, poor fit]
